# Source: patent US6716635B2, “Method for identifying regulators of protein-advanced glycation end product (protein-AGE) formation” (University of Kentucky Research Foundation, priority 2000, dated 2004)
# System: AGE-BSA
# Assay: AGE-BSA test (fluorescence quenching, false positives)
# Parameters: species or system bovine
row,SMILES,"quenching of AGE-BSA fluorescence, in words"
1,"CC(C)(S)C(N)C(=O)O (racemic) [D,L-Penicillamine]",found not to be false positives
2,"CC(C)(S)[C@@H](N)C(=O)O [D-Penicillamine, reference compound]",found not to be false positives
